Literature values as cited in patent US20240293441A1, “NEW THERAPEUTIC USE OF TYPE 2 IODOTHYRONINE DEIODINASE (D2) INHIBITORS” (MATERIAS S.R.I, priority 2021, published 2024).
For at least one compound, name, drawing or mass did not settle the structure.

Target: T1, type 2 iodothyronine deiodinase (D2) (Homo sapiens, UniProt Q92813)
T1 sequence (Q92813 1-273): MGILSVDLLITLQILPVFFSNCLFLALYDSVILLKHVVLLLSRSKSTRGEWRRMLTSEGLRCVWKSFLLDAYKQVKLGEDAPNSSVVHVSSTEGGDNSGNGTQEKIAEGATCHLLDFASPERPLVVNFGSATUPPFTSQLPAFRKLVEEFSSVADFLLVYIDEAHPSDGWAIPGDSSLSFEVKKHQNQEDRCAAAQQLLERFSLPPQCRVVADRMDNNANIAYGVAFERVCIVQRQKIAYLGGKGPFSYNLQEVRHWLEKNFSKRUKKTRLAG
Design: key to the marks not given beside the values
Conditions: grades − to ++++, key not given; taken from bibliographic references; cited from earlier work

C[C@@H]1C[C@H]2[C@@H]3CCC4=CC(=O)C=C[C@]4(C)[C@@]3(F)[C@@H](O)C[C@]2(C)[C@@]1(O)C(=O)CO [Dexamethasone]
Activity (D2 susceptibility index to inhibition): ++
